In publication PMC7950113:
Results are given in words; binding and its absence hold for the method and conditions named. In cells and extracts the contact can be indirect. These calls come from enrichment with a bait or labelling near it, and not all partners need be listed.

Protein sequences, listed by entry. Tags and fused reporters are not part of them. Lines headed by an entry give the natural chain unless they say otherwise; changes in a name come on top. Chains listed by the source or under a name are the forms on record and can include a tag or linker. Residues count along the entry.
FLAG-tagged thyroglobulin, WT (P01266, residues 20-2768): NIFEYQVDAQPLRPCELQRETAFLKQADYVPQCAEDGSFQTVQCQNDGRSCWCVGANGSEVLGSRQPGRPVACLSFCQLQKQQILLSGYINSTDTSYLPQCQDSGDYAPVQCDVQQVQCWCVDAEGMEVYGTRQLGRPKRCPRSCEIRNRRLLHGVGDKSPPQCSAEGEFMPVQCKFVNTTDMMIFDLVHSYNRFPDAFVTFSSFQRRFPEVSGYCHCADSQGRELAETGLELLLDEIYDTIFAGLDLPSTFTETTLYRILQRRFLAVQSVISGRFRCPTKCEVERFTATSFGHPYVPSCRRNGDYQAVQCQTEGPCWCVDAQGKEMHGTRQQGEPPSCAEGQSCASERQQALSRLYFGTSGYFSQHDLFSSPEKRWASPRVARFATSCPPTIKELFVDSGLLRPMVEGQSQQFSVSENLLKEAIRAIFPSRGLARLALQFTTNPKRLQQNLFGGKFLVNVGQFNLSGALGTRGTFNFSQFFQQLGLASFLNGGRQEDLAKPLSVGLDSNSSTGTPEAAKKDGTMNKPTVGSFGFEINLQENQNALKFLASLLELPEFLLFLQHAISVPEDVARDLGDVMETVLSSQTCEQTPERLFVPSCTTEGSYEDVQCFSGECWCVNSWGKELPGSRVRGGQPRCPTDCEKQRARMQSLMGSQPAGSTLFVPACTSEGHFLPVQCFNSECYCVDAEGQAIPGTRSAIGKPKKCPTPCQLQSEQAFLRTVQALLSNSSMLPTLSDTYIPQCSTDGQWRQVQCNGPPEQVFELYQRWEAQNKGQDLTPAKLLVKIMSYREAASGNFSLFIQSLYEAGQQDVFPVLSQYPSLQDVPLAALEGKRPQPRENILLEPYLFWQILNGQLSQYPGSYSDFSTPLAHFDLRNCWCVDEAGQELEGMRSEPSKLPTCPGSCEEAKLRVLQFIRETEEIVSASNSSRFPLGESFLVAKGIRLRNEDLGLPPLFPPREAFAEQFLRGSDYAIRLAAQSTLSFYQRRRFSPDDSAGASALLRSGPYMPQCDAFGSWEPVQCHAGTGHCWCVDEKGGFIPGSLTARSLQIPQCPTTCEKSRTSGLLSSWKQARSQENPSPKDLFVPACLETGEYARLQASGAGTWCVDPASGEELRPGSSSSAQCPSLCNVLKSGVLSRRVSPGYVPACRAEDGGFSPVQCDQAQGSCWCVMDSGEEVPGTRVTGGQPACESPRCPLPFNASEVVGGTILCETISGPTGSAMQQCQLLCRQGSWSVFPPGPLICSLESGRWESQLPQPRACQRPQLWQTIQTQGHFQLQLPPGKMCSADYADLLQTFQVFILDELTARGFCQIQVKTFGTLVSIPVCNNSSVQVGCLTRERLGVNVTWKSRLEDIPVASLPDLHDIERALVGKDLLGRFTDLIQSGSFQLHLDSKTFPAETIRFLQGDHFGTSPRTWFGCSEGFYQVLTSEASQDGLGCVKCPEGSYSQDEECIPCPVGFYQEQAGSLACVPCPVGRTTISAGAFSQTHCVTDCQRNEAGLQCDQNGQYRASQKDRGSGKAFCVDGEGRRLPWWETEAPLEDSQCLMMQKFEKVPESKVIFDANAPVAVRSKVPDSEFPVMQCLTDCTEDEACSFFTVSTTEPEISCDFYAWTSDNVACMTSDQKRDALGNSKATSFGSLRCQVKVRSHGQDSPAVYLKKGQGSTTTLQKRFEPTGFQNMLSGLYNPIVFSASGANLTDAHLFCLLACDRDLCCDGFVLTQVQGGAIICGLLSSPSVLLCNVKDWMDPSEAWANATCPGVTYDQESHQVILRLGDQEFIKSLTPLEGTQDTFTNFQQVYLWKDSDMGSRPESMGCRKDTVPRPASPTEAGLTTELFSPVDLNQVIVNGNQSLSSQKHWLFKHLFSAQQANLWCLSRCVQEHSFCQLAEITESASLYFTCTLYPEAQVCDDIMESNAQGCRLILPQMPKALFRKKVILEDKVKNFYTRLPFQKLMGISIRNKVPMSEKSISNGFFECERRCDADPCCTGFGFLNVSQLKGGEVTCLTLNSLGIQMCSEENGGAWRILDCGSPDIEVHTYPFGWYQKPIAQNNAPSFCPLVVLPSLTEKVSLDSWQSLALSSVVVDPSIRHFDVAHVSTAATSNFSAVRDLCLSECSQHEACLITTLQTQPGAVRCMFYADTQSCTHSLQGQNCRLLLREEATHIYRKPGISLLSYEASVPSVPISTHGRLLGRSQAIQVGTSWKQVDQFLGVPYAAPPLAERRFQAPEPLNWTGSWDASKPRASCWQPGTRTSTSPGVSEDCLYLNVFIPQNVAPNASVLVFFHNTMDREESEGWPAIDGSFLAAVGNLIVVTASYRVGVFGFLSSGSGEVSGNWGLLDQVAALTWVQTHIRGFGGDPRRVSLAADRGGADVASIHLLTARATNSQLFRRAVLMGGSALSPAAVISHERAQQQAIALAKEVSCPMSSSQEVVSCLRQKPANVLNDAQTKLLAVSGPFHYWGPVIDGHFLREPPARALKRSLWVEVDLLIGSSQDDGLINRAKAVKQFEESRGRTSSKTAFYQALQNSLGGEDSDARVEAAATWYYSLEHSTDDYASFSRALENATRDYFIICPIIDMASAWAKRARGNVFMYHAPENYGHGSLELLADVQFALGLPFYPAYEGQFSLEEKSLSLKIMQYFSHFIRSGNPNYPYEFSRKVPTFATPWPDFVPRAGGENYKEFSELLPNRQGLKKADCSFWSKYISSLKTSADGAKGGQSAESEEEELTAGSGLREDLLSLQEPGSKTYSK
UniProt P14625, residues 22-803: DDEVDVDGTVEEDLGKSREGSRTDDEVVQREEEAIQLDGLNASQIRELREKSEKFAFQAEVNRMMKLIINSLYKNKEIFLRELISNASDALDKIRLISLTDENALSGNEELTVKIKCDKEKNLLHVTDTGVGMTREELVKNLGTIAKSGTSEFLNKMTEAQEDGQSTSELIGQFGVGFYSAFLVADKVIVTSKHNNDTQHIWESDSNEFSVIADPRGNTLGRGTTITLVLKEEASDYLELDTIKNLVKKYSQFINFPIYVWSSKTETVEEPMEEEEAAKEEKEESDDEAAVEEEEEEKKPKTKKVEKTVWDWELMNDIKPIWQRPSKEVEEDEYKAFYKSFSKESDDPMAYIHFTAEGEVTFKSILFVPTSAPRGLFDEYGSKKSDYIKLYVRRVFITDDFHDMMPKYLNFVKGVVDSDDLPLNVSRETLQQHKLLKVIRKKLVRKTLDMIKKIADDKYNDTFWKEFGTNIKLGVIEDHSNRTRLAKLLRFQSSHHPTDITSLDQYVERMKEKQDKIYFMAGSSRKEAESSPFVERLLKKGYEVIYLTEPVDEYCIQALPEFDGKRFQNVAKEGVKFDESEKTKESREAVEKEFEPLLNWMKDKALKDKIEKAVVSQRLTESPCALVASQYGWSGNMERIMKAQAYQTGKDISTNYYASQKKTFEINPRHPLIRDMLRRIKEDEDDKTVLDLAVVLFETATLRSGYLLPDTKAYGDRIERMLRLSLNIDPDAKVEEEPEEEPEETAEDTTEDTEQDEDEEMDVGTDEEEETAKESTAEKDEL
UniProt Q9UBS4, residues 23-358: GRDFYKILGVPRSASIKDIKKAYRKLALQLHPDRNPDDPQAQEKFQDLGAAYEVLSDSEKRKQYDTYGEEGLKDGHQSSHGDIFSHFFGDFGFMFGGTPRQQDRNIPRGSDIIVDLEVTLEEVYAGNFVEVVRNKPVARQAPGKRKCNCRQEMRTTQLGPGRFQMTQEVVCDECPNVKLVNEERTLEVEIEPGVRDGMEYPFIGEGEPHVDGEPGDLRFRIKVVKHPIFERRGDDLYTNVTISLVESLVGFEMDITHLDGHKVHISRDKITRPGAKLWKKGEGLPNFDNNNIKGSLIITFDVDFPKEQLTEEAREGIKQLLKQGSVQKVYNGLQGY
UniProt Q9NYU2, residues 43-1555: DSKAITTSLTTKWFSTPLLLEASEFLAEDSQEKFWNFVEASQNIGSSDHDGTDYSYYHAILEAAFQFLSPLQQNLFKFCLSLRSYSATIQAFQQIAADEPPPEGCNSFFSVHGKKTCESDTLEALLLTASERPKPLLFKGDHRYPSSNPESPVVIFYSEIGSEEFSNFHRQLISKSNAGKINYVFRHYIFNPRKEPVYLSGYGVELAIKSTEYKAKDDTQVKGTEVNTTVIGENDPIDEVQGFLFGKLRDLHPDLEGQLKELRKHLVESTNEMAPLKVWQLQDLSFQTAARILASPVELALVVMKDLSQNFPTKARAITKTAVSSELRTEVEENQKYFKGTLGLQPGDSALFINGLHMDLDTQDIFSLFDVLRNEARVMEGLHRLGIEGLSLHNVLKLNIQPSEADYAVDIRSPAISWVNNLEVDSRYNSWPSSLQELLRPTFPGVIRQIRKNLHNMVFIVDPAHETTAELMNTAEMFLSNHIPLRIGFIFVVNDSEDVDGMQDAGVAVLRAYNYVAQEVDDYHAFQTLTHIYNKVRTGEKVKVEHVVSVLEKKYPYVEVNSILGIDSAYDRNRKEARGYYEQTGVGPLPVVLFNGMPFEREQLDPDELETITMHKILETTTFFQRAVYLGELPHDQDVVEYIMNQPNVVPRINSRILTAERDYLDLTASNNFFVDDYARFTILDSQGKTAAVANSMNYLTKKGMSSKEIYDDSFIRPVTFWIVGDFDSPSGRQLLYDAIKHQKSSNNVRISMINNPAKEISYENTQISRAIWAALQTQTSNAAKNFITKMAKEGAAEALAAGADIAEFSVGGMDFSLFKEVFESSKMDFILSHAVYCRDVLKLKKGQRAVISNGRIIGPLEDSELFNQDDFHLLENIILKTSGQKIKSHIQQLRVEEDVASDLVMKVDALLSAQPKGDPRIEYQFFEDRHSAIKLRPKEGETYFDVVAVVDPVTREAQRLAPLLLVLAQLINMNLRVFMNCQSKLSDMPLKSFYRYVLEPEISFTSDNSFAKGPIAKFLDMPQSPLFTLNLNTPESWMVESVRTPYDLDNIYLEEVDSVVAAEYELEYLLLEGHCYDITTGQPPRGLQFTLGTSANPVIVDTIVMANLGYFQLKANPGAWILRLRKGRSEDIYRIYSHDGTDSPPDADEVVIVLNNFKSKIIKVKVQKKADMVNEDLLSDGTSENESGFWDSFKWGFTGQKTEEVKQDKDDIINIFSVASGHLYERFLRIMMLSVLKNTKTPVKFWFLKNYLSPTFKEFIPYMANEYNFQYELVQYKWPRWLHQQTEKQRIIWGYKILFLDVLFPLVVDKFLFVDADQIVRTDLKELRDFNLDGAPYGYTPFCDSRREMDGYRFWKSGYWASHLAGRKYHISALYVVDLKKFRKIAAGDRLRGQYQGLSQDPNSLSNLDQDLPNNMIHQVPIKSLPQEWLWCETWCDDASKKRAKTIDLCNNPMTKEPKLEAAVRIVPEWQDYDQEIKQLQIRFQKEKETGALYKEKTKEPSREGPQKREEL
UniProt P11021, residues 19-654: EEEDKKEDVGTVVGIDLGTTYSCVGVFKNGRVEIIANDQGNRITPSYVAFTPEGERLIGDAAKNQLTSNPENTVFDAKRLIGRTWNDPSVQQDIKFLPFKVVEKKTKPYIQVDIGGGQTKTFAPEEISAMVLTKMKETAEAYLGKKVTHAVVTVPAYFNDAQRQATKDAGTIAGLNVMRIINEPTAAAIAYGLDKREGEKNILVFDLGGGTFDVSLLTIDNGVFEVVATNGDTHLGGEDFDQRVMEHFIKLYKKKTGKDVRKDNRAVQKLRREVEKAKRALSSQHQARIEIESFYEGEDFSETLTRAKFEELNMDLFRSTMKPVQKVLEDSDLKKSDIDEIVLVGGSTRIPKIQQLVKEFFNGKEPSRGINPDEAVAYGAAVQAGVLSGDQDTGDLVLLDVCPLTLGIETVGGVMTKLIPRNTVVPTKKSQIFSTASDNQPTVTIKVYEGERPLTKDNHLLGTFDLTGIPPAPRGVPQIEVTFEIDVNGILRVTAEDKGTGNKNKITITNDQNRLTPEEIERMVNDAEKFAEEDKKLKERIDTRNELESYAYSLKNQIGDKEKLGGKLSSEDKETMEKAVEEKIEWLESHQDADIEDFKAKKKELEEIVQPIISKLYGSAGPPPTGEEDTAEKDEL
UniProt P30101, residues 25-505: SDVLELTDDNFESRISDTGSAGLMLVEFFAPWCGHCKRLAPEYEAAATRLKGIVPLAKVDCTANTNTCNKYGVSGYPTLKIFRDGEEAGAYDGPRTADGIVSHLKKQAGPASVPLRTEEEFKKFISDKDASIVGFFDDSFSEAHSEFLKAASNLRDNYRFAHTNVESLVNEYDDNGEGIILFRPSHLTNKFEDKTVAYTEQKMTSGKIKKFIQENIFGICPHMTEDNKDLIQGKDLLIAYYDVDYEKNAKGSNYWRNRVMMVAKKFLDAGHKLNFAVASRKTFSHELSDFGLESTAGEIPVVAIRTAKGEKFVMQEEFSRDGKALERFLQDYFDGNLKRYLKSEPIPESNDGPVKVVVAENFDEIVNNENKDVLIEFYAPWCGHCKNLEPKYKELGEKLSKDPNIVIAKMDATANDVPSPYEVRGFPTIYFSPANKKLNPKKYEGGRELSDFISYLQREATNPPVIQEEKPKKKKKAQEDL

Legend:
Test in all cases: affinity purification with mass spectrometry; FLAG-Tg variants transiently expressed in HEK293 cells; cells cross-linked with 0.5 mM DSP, RIPA lysate, M2 anti-flag agarose or G1 Anti-DYKDDDDK resin overnight at 4 °C, four RIPA washes; TMT sixplex LC-MS/MS against mock AP (untagged Tg, EGFP or tdTomato)
[1] = molecular target: FLAG-tagged thyroglobulin G2341R (human) (UniProt P01266)
[2] = molecular target: FLAG-tagged thyroglobulin L2284P (human) (UniProt P01266)
[3] = molecular target: FLAG-tagged thyroglobulin, WT (human) (UniProt P01266)
[4] = molecular target: FLAG-tagged thyroglobulin A2234D (human) (UniProt P01266)
[5] = molecular target: FLAG-tagged thyroglobulin C1264R (human) (UniProt P01266)

Measured: binding

94 kDa glucose-regulated protein (from UniProt P14625 22-803)
binds: all assays above

ARHGAP21 (from UniProt Q5T5U3 1-1958)
binds: [4]

DnaJ heat shock protein family member B11 (from UniProt Q9UBS4 23-358)
binds: all assays above

PLEC (from UniProt Q15149 1-4684)
binds: [3]

Protein disulfide isomerase family A member 1 (from UniProt P07237 18-508)
binds: [2] | [3]

TUBA4A (from UniProt P68366 1-448)
binds: [3]

UDP-glucose glycoprotein glucosyltansferase 1 (from UniProt Q9NYU2 43-1555)
binds: all assays above

binding immunoglobulin protein (from UniProt P11021 19-654)
binds: all assays above

calnexin (from UniProt P27824 21-592)
binds: [3]

calreticulin (from UniProt P27797 18-417)
binds: all assays above

protein disulfide isomerase family A member 3 (from UniProt P30101 25-505)
binds: all assays above

protein disulfide isomerase family A member 9 (from UniProt P30040 33-261)
binds: [3] | [4]

thioredoxin domain containing 5 (from UniProt Q8NBS9 33-432)
binds: [3]

valosin containing protein (from UniProt P55072 1-806)
binds: all assays above
